These are yes or no findings as the source states them, for the method shown. In cells and extracts the contact can be indirect. Some entries that bind do so weakly or less than the wild type.
Assays:
Experiment in all cases: co-IP
[1] = molecular target: E2F1, endogenous (LN229) (human (endogenous in LN229)) (UniProt Q01094)
[2] = molecular target: HA-E2F1 (E2F transcription factor 1) (UniProt Q01094)
[3] = molecular target: SMARCA1 (UniProt P28370)
[4] = molecular target: SMARCA5-eGFP (UniProt O60264)
[5] = molecular target: BAZ1A-eGFP (Bromodomain Adjacent to Zinc Finger Domain 1A) (UniProt Q9NRL2)

Sequences of proteins named here, by UniProt entry; tags and fusion partners are left off. A change or cut given only in a name is not applied to a line headed by its entry.
UniProt Q01094, whole entry: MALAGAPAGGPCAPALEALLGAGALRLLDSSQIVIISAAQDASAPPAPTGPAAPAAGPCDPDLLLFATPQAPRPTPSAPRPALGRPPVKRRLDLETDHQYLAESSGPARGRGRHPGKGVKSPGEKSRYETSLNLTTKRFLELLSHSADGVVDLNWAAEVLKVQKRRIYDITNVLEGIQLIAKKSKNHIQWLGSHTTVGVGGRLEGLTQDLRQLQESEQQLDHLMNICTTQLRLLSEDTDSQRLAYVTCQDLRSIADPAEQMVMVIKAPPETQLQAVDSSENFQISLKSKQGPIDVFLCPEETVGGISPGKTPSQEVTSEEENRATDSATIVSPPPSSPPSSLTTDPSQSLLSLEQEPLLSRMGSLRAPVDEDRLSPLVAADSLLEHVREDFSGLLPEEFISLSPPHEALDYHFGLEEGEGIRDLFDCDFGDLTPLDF
UniProt P28370, whole entry: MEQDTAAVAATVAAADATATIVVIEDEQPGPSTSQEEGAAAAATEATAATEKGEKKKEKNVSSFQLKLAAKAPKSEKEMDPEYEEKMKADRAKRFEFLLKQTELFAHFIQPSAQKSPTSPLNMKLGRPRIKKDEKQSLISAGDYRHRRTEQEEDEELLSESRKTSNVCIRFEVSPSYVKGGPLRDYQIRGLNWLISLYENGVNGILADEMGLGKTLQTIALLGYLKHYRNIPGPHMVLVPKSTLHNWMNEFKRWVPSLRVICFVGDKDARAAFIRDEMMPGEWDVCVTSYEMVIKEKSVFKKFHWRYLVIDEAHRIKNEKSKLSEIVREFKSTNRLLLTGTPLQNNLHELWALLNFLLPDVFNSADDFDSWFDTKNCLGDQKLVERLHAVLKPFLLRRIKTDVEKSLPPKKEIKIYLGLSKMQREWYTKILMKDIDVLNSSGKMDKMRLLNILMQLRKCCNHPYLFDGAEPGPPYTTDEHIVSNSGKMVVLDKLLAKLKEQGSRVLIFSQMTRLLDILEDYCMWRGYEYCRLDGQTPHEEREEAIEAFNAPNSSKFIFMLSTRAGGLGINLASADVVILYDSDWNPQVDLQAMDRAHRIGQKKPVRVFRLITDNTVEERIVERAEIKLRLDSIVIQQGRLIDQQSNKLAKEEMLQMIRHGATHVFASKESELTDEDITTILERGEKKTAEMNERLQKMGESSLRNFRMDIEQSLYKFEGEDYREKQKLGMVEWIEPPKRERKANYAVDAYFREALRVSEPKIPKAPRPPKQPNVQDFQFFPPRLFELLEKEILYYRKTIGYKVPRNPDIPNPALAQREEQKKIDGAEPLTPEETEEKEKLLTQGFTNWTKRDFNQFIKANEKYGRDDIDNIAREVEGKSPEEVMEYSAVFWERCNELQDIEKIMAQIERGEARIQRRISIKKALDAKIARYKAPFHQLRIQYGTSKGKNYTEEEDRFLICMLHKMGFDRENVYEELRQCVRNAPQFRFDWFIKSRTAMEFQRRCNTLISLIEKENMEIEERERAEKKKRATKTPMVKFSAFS
UniProt O60264, whole entry: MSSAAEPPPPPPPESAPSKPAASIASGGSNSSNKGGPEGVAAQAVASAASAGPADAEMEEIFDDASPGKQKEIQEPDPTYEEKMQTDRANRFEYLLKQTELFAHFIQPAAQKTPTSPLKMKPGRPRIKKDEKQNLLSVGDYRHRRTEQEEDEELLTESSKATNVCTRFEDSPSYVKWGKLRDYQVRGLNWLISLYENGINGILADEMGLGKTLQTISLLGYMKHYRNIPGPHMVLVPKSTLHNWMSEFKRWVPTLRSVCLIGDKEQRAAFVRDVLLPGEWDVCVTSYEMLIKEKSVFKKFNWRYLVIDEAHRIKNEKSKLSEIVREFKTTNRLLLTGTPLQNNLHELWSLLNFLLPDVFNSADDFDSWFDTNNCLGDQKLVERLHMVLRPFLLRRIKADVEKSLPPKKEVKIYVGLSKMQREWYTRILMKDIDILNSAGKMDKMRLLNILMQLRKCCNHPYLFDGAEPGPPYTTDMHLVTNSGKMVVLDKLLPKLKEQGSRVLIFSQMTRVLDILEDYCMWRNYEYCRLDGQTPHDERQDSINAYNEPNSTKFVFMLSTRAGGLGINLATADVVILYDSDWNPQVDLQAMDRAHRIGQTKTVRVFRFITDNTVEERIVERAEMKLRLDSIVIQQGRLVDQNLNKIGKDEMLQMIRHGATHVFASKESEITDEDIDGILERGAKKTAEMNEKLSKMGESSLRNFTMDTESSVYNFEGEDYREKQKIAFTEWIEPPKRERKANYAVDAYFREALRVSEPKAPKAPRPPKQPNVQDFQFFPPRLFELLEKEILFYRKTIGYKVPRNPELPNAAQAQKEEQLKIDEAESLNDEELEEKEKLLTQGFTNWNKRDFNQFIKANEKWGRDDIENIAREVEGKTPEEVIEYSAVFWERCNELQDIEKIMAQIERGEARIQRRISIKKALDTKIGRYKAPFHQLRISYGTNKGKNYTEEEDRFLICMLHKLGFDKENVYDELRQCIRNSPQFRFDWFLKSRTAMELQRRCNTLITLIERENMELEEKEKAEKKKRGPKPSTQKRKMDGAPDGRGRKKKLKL
UniProt Q9NRL2, whole entry: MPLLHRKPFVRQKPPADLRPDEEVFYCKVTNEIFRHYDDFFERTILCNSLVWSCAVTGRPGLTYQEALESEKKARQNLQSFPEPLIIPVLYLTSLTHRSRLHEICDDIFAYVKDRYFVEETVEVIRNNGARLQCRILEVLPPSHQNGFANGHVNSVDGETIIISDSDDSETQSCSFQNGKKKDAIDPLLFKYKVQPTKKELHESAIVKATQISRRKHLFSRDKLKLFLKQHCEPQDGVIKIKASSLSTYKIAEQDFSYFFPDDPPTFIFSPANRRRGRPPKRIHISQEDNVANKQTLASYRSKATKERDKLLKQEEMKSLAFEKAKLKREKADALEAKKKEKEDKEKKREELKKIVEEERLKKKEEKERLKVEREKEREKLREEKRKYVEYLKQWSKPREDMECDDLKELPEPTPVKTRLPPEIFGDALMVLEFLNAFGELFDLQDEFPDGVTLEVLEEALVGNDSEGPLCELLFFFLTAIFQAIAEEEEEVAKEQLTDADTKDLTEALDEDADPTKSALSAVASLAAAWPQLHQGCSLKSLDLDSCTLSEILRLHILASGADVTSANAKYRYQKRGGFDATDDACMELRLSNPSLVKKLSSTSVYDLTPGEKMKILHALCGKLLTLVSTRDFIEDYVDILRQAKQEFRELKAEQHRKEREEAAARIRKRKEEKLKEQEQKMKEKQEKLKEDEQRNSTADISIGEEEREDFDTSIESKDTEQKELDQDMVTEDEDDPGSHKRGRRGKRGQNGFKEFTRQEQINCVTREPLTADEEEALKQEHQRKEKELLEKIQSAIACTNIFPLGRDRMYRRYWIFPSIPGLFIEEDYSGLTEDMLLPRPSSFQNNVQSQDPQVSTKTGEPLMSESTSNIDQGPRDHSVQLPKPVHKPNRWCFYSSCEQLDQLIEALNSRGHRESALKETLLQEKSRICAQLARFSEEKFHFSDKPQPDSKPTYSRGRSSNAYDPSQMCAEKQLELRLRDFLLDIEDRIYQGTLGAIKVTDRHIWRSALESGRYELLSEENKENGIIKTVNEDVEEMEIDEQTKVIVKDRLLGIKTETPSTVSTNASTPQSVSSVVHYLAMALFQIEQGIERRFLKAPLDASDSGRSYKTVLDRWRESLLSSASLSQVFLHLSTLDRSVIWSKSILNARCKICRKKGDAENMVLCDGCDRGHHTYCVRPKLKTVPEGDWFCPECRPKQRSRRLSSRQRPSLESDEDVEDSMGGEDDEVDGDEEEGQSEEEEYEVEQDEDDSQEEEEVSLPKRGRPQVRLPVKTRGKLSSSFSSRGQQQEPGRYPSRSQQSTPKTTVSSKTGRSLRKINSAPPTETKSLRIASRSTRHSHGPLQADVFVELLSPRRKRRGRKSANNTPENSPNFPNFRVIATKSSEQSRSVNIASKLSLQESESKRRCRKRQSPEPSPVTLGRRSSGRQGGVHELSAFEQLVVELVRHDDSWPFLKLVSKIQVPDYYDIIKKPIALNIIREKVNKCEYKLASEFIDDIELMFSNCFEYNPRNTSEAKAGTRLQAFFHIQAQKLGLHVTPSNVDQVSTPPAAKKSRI

| Substance | binding [1] | binding [2] | binding [3] | binding [4] | binding [5] |
| --- | --- | --- | --- | --- | --- |
| BAZ1A, endogenous (LN229) (from UniProt Q9NRL2 1-1556) | binds |  |  |  |  |
| BAZ1A-eGFP (Bromodomain Adjacent to Zinc Finger Domain 1A) (from UniProt Q9NRL2 1-1556) |  | binds | binds | binds |  |
| SMARCA5 (from UniProt O60264 1-1052) |  | binds |  |  | binds |

Reference: doi:10.1101/2024.11.20.624462
